These results are taken from patent publication US10795272B2, “Triphenylamine derivative, and charge transport material and electrophotographic photoreceptor using the same” (TAKASAGO INTERNATIONAL CORPORATION, priority 2016, dated 2020).

The nature of data set [1]: Photoreceptor characteristics of multilayer electrophotographic photoreceptor, static method (EPA-8300A). The settings on record: for E1/2 (half decay exposure) / E1/6 / Vr (surface residual potential): 0.2 μW laser light at 780 nm; for E1/2 (half decay exposure): exposure to reduce Vi by half; for E1/6: exposure to reduce Vi to 1/6; for V0 (surface potential): after corona discharge at −6 kv, charge transport layer 8 parts compound, 12 parts Iupilon Z-200; for Vr (surface residual potential): after irradiation for 5 seconds; for L/D (dark decay retention, Vi/V0): dark place for 5 seconds; for V1 (surface potential after dark hold): held in a dark place for 5 seconds. Here is the method:
A solution prepared by dissolving 0.375 parts by weight of a polyamide resin “FINE RESIN FR-104” (manufactured by Namariichi Co., Ltd.) in methanol and adjusting the total to 25 parts by weight was applied onto an aluminum plate and dried at 105° C. for 1 hour, to form an underlayer.
To a binder solution obtained by dissolving 15 parts by weight of a butyral resin “S-LEC BH-3” (manufactured by Sekisui Chemical Co., Ltd.) in 750 parts by weight of cyclohexanone, 22.5 parts by weight of phthalocyanine “Fastogen Blue 8120BS” (manufactured by Dainippon Ink and Chemicals, Incorporated) was added, and dispersed by using a vibration mill together with glass beads for 4 days. The dispersion was applied onto the underlayer and dried at 105° C. for 1 hour, to form a charge generation layer.
12 parts by weight of a polycarbonate resin “Iupilon Z-200” (manufactured by Mitsubishi Engineering-Plastics Corporation) as a binder resin and 8 parts by weight of Compound (1-1) obtained in Example 1 were mixed and dissolved in tetrahydrofuran with which the total was adjusted to 100 parts by weight. The solution was applied onto the charge generation layer with a doctor blade, and dried at 80° C. for 2 hours, to form a charge transport layer. A functionally-separated multilayer type electrophotographic photoreceptor was obtained by using the obtained charge generation layer and charge transport layer.
The photoreceptor characteristics of the thus obtained electrophotographic photoreceptor were measured by using an electrostatic recording tester “EPA-8300A” (manufactured by Kawaguchi Electric Works.) by the static method. Specifically, the electrophotographic photoreceptor was charged by performing corona discharge at −6 kv, and the surface potential V0 (Unit: −v) was measured. The electrophotographic photoreceptor was held in a dark place for 5 seconds (surface potential Vi (Unit: −v)) and dark decay retention L/D(Vi/V0 (Unit: %)) was determined. After that, the electrophotographic photoreceptor was irradiated with 0.2 μW laser light at 780 nm to determine the half decay exposure E1/2 (mJ/cm^2), which was the amount of light exposure necessary to reduce the surface potential Vi by half, and the E1/6 (mJ/cm^2), which was the amount of light exposure necessary to reduce the surface potential Vi to ⅙, and then the surface residual potential Vr (Unit: −v) was determined after irradiation for 5 seconds.
Electrophotographic photoreceptors were prepared and the photoreceptor characteristics thereof were measured in the same manner as in Example 11, except that charge transport layers were prepared by using Comparative Compound (3) (manufactured by Takasago International Corporation, “CTC-191”) or Comparative Compound (4) (manufactured by Takasago International Corporation, “CT-4”).

Data set [2] in a line: Charge carrier mobility of charge transport layer, Time-of-Flight method. The settings on record: 25° C. and 25 V/μm; charge transport layer approx. 18 μm, 15 parts compound and 15 parts polycarbonate resin TS-2020. Here is the method:
In 85 parts by weight of tetrahydrofuran, 15 parts by weight of a polycarbonate resin “TS-2020” (manufactured by Teijin Chemicals Ltd.) as a binder resin and 15 parts by weight of Compound (1-1) obtained in Example 1 were mixed and dissolved. The solution was applied onto a sheet, which had been prepared by vapor deposition of aluminum onto a polyethylene phthalate (PET) film, with a doctor blade, followed by drying at 80° C. for 3 hours, to form a charge transport layer (thickness: approximately 18 μm).
A translucent gold electrode was vapor deposited onto the charge transport layer, and the charge carrier mobility was measured. The carrier mobility was measured by the Time-of-Flight method (Hiroaki Tanaka, Yasuhiro Yamaguchi, Masaaki Yokoyama: DENSHI SHASHIN GAKKAISHI (Electrophotography), 29, 366(1990)) using a nitrogen gas laser with a pulsed half width of 0.9 sec and a wavelength of 337 nm as a light source.
In the same manner as in Example 7, charge transport layers were formed by using Compound (1-7) obtained in Example 3, Compound (1-9) obtained in Example 4, and Compound (1-17) obtained in Example 6, and the charge carrier mobility was measured.
In the same manner as in Example 7, charge transport layers were formed by using Comparative Compound (1) or Comparative Compound (2), and the charge carrier mobility was measured.

Regarding `Cc1ccc(N(c2ccc(/C=C/c3ccc(/C=C/C=C(c4ccccc4)c4ccccc4)cc3)cc2)c2ccc(/C=C/c3ccc(/C=C/c4ccc(N(c5ccc(C)cc5)c5ccc(/C=C/c6ccc(/C=C/C=C(c7ccccc7)c7ccccc7)cc6)cc5)cc4)cc3)cc2)cc1` [Compound (1-1)], in data set [1], the “E1/2 (half decay exposure)” value is given as 0.05 mJ/cm^2, the E1/6 worked out at 0.13 mJ/cm^2, the “V0 (surface potential)” value is 443 −V and the “Vr (surface residual potential)” value is 67 −V. For the same compound, in data set [1], the “L/D (dark decay retention, Vi/V0)” value is on record as 98% and the “V1 (surface potential after dark hold)” value is given as 434 −V. The Charge carrier mobility in data set [2] was 12.8 × 10^−5 cm^2/Vs.

As for `Cc1ccc(N(c2ccc(C)cc2)c2ccc(C=CC=C(c3ccccc3)c3ccccc3)cc2)cc1` [Comparative Compound (4), reference compound], in data set [1], the “E1/2 (half decay exposure)” value was 0.06 mJ/cm^2, the E1/6 is reported as 0.16 mJ/cm^2, the “V0 (surface potential)” value is listed as 489 −V and the “Vr (surface residual potential)” value is listed as 123 −V. Besides, in data set [1], the “L/D (dark decay retention, Vi/V0)” value stood at 99% and the “V1 (surface potential after dark hold)” value was 484 −V.

As for `Cc1ccc(C(=C/C=C/c2ccc(/C=C/c3ccc(N(c4ccc(/C=C/c5ccc(/C=C/c6ccc(N(c7ccc(/C=C/c8ccc(/C=C/C=C(c9ccc(C)cc9)c9ccc(C)cc9)cc8)cc7)c7ccc(C)cc7C)cc6)cc5)cc4)c4ccc(C)cc4C)cc3)cc2)c2ccc(C)cc2)cc1` [Compound (1-17)], in data set [1], the “E1/2 (half decay exposure)” value worked out at 0.04 mJ/cm^2, the E1/6 was found to be 0.10 mJ/cm^2, the “V0 (surface potential)” value is 423 −V and the “Vr (surface residual potential)” value is reported as 50 −V. In addition, in data set [1], the “L/D (dark decay retention, Vi/V0)” value was determined as 98% and the “V1 (surface potential after dark hold)” value is listed as 416 −V. The Charge carrier mobility in data set [2] is 11.8 × 10^−5 cm^2/Vs.

`Cc1ccc(N(c2ccc(C)cc2)c2ccc(C)cc2)cc1` [Comparative Compound (2), reference compound]: in data set [2], the Charge carrier mobility was 0.7 × 10^−5 cm^2/Vs.

Regarding `Cc1ccc(N(c2ccc(/C=C/c3ccc(/C=C/C=C(c4ccccc4)c4ccccc4)cc3)cc2)c2ccc(/C=C/c3ccc(/C=C/c4ccc(N(c5ccc(/C=C/c6ccc(/C=C/C=C(c7ccccc7)c7ccccc7)cc6)cc5)c5ccc(C)cc5C)cc4)cc3)cc2)c(C)c1` [Compound (1-7)], the Charge carrier mobility in data set [2] is 10.8 × 10^−5 cm^2/Vs.

On to `COc1ccc(N(c2ccc(/C=C/c3ccc(/C=C/C=C(c4ccccc4)c4ccccc4)cc3)cc2)c2ccc(/C=C/c3ccc(/C=C/c4ccc(N(c5ccc(/C=C/c6ccc(/C=C/C=C(c7ccccc7)c7ccccc7)cc6)cc5)c5ccc(OC)cc5)cc4)cc3)cc2)cc1` [Compound (1-9)], for which, in data set [1], the “E1/2 (half decay exposure)” value is given as 0.05 mJ/cm^2, the E1/6 was found to be 0.12 mJ/cm^2, the “V0 (surface potential)” value is on record as 419 −V and the “Vr (surface residual potential)” value is reported as 56 −V. Besides, in data set [1], the “L/D (dark decay retention, Vi/V0)” value is given as 98% and the “V1 (surface potential after dark hold)” value was 410 −V. Moreover, the Charge carrier mobility in data set [2] is 16.0 × 10^−5 cm^2/Vs.

As to `Cc1cc(N(Cc2ccccc2)Cc2ccccc2)ccc1/C=N/N(c1ccccc1)c1ccccc1` [Comparative Compound (3), reference compound], in data set [1], the “E1/2 (half decay exposure)” value turned out to be 0.07 mJ/cm^2, the E1/6 is 0.16 mJ/cm^2, the “V0 (surface potential)” value is reported as 485 −V and the “Vr (surface residual potential)” value was 144 −V. Also, in data set [1], the “L/D (dark decay retention, Vi/V0)” value is 99% and the “V1 (surface potential after dark hold)” value is on record as 479 −V.
